The values that follow come from paper PMC12811253.

The chains behind the UniProt entries cited, without tags or fusion partners.
UniProt P53396: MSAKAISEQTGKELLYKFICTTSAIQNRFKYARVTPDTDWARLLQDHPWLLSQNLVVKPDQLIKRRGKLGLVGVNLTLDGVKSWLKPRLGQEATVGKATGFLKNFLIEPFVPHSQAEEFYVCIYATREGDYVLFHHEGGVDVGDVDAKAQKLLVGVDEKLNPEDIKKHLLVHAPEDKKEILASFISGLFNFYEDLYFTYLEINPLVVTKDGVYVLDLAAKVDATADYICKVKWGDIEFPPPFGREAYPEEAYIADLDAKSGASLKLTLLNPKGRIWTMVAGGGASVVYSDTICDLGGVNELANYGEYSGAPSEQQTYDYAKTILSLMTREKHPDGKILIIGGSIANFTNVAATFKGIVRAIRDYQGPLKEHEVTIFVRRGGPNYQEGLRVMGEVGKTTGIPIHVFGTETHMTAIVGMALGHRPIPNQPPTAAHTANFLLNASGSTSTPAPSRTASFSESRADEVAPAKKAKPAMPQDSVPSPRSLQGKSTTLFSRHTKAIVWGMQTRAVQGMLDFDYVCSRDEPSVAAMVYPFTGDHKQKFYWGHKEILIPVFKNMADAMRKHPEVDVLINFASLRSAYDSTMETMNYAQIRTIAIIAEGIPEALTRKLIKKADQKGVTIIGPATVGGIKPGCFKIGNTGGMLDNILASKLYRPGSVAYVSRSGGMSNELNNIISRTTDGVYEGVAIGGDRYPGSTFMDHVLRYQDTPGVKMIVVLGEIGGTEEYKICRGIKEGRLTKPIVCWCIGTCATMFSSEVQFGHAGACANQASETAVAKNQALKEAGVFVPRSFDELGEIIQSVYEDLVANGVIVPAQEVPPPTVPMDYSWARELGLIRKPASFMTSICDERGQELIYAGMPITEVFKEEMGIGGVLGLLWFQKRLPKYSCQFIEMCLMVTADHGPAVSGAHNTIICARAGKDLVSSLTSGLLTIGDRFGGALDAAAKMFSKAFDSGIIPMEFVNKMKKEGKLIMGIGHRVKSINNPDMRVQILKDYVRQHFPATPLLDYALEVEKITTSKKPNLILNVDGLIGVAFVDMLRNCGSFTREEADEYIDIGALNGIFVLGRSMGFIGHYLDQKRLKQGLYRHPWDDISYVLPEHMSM

These are yes or no findings as the source states them, for the method shown. In cells and extracts the contact can be indirect. Some binding calls cover weakened binding; strength is not graded here. For some assays here: Tags and fused reporters may be left off the sequences shown.

Assay [1] addresses Myc-ACLY, full-length (UniProt P53396). In words: co-IP; HEK293 cells co-transfected with 2 μg Myc-ACLY and full-length or mutant Flag-USP13, 24 h, NP-40 buffer; Myc antibody for co-IP, detection by Flag antibody.
Assay [2] addresses ATP citrate lyase (ACLY), endogenous (human (endogenous in LM3)) (UniProt P53396). Kind of assay: co-IP; endogenous proteins in LM3 cell lysate; antibody overnight at 4 °C, protein A/G PLUS-Agarose beads, immunoblotting. In general terms: In western blotting, separated proteins are transferred to a membrane and probed.

B1: Flag-USP13 deletion mutant: USP domain (domain or fragment, UniProt Q92995 336-861)
chain: TGLKNLGNSCYLSSVMQAIFSIPEFQRAYVGNLPRIFDYSPLDPTQDFNTQMTKLGHGLLSGQYSKPPVKSELIEQVMKEEHKPQQNGISPRMFKAFVSKSHPEFSSNRQQDAQEFFLHLVNLVERNRIGSENPSDVFRFLVEERIQCCQTRKVRYTERVDYLMQLPVAMEAATNKDELIAYELTRREAEANRRPLPELVRAKIPFSACLQAFSEPENVDDFWSSALQAKSAGVKTSRFASFPEYLVVQIKKFTFGLDWVPKKFDVSIDMPDLLDINHLRARGLQPGEEELPDISPPIVIPDDSKDRLMNQLIDPSDIDESSVMQLAEMGFPLEACRKAVYFTGNMGAEVAFNWIIVHMEEPDFAEPLTMPGYGGAASAGASVFGASGLDNQPPEEIVAIITSMGFQRNQAIQALRATNNNLERALDWIFSHPEFEEDSDFVIEMENNANANIISEAKPEGPRVKDGSGTYELFAFISHMGTSTMSGHYICHIKKEGRWVIYNDHKVCASERPPKDLGYMYFYRRI
Turning to B1, the binding result in assay [1] is given as “binds”.

B2: ubiquitin-specific protease 13 (USP13), endogenous (enzyme, UniProt Q92995 1-863)
chain: MQRRGALFGMPGGSGGRKMAAGDIGELLVPHMPTIRVPRSGDRVYKNECAFSYDSPNSEGGLYVCMNTFLAFGREHVERHFRKTGQSVYMHLKRHVREKVRGASGGALPKRRNSKIFLDLDTDDDLNSDDYEYEDEAKLVIFPDHYEIALPNIEELPALVTIACDAVLSSKSPYRKQDPDTWENELPVSKYANNLTQLDNGVRIPPSGWKCARCDLRENLWLNLTDGSVLCGKWFFDSSGGNGHALEHYRDMGYPLAVKLGTITPDGADVYSFQEEEPVLDPHLAKHLAHFGIDMLHMHGTENGLQDNDIKLRVSEWEVIQESGTKLKPMYGPGYTGLKNLGNSCYLSSVMQAIFSIPEFQRAYVGNLPRIFDYSPLDPTQDFNTQMTKLGHGLLSGQYSKPPVKSELIEQVMKEEHKPQQNGISPRMFKAFVSKSHPEFSSNRQQDAQEFFLHLVNLVERNRIGSENPSDVFRFLVEERIQCCQTRKVRYTERVDYLMQLPVAMEAATNKDELIAYELTRREAEANRRPLPELVRAKIPFSACLQAFSEPENVDDFWSSALQAKSAGVKTSRFASFPEYLVVQIKKFTFGLDWVPKKFDVSIDMPDLLDINHLRARGLQPGEEELPDISPPIVIPDDSKDRLMNQLIDPSDIDESSVMQLAEMGFPLEACRKAVYFTGNMGAEVAFNWIIVHMEEPDFAEPLTMPGYGGAASAGASVFGASGLDNQPPEEIVAIITSMGFQRNQAIQALRATNNNLERALDWIFSHPEFEEDSDFVIEMENNANANIISEAKPEGPRVKDGSGTYELFAFISHMGTSTMSGHYICHIKKEGRWVIYNDHKVCASERPPKDLGYMYFYRRIPS
Consider B2, for which the binding entry in assay [2] is “binds”.
